“And” between values parts separate entries of the source, which are not always exact repeats. Equal entries are not always repeated. The campaign covered roughly 400,000 compounds. About 5,500 (1.4%) were called active. Inconclusive means that the source gave no clear call. Such entries were picked first, then a sample of the others. Calls follow the shape of the dose curve; as a rule, active = well fitted cell-killing curve with a large enough effect; inconclusive = small, poorly fitted or top-dose-only effect, or effect the other way; inactive = flat fitted curve, though single readings scatter. Where the call is inconclusive, the potency comes from a doubtful curve fit.
Test: qHTS assay for MDR1-selective chemotherapeutics: Primary screen using the parental adenocarcinoma cell KB-3-1; also: nearly all actives have a fitted effect of over 60% in size
Settings: KB-3-1 viability, CellTiter-Glo ATP luminescence, 72 h; activity change, negative = cytotoxic: at 46.1 µM (top of the series)
Method in brief: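 Viability of parental KB-3-1 cells, measured by CellTiter-Glo luminescence, followed a 72 h incubation at 37 °C with pinned compounds in phenol-red-free DMEM containing 10% FBS.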
% is scaled to controls: 0 for no effect and ±100 for the full control effect; potency is read from the fitted curve at half-maximal effect.

Row | SMILES | Potency | activity change, negative = cytotoxic
1 | CCN1CCN(c2ccc(S(=O)(=O)N3CCCCC3)cc2NC(=O)/C=C/c2ccc(OC(F)F)cc2)CC1 | inconclusive: 29.1 µM [cytotoxic, single point] | 
2 | COc1ccccc1Cn1c(C)c(C(=O)NCc2ccc(C#N)cc2)sc1=O | inactive | 
3 | CCCn1c(NC(=S)Nc2ccccc2)nc2ccccc21 | inconclusive: 18.4 µM [cytotoxic, single point] | 
4 | O=C1NC[C@H](CCCCN2CCN(CCC3CCCCC3)C(=O)C2=O)N(CCc2ccc(O)cc2)C1=O | inconclusive: 23.1 µM [rising, single point] | 
5 | CCOC(=O)[C@@H](C)N(Cc1ccc(OC)cc1)S(=O)(=O)N(Cc1ccccc1)[C@H](C(=O)OC)C(C)C | inconclusive: 25.9 µM [cytotoxic, single point] and inconclusive: 20.6 µM [cytotoxic, single point] | 
6 | COc1cccc2sc(Nc3nc4ccc(NC(C)=O)cc4s3)nc12 | active: 16.4 µM | 
7 | Cc1ccc(NS(=O)(=O)c2ccc3c(c2)C(C(C)C)C(=O)N3)cc1C (stereo not given) | inactive | 
8 | CC1=C(C(=O)NC(C)c2ccc3c(c2)OCCO3)C2(CCC(C)CC2)OC1=O (stereo not given) | inactive | 
9 | O=C(Cc1cccc(C(F)(F)F)c1)OCN1C(=O)c2ccccc2C1=O | inactive | 
10 | CNc1nc2c(c(=O)n(C)c(=O)n2C)n1CC(O)COc1ccc(OC)cc1 (stereo not given) | inconclusive: 29.1 µM [cytotoxic, single point] | 
11 | O=C(Nc1cc2c(cc1Cl)OCCCO2)c1ccc(F)cc1 | inactive | 
12 | O=[N+]([O-])c1ccc(O)c(/C=N/NC2=NS(=O)(=O)c3ccccc32)c1 | inactive | 
13 | COc1ccc(NS(=O)(=O)c2ccc(-n3cccn3)cc2)cc1OC | inconclusive: 6.51 µM [cytotoxic, full curve, poor fit] | 
14 | CCCn1c(NC(=O)CN2C(=O)NC3(CCCCC3)C2=O)nc2ccccc21 | inconclusive: 29.1 µM [cytotoxic, single point] | 
15 | Cn1c(=O)c2cc(NC(=O)Nc3cccnc3)ccc2n1Cc1ccc(Cl)cc1 | inactive | 
16 | COc1ccc(-c2cn3cccc(C)c3n2)cc1Br | inconclusive: 29.1 µM [rising, single point] | 
17 | CCC(=O)N1CCC(C)(C(=O)NCc2ccc(F)cc2)C1 (stereo not given) | inactive | 
18 | CCCSc1nc2sc3c(c2c(=O)n1-c1ccc(C)c(Cl)c1)CCN(C(C)=O)C3 | inactive | 
19 | COc1ccccc1-c1c(C(F)(F)F)oc2cc(OS(C)(=O)=O)ccc2c1=O | inconclusive: 20.6 µM [cytotoxic, single point] | 
20 | Oc1ccc(C[C@H]2CNCCN2CCc2cc(C(F)(F)F)cc(C(F)(F)F)c2)cc1 | inconclusive: 23.1 µM [cytotoxic, single point] | 
21 | NC(=O)c1ccsc1NC(=O)CSc1ncnc2sccc12 | inconclusive: 29.1 µM [rising, single point] | 
22 | Cn1c2c(c(=O)n(C)c1=O)C(C(F)(F)F)(C(F)(F)F)N=C(CCC1CCCCC1)N2 | active: 23.1 µM | 
23 | O=C(N/N=C/c1cn(-c2ccccc2)nc1-c1cccs1)c1ccccc1F | inconclusive: 29.1 µM [cytotoxic, single point] | 
24 | Cc1ccc(S(=O)(=O)c2nc(-c3ccc(F)cc3)oc2SCC(=O)NCC2CCCO2)cc1 (stereo not given) | inactive | 

By substructure: those above containing a CF3 group
Row | SMILES | Potency | activity change, negative = cytotoxic
9 | O=C(Cc1cccc(C(F)(F)F)c1)OCN1C(=O)c2ccccc2C1=O | inactive | 
19 | COc1ccccc1-c1c(C(F)(F)F)oc2cc(OS(C)(=O)=O)ccc2c1=O | inconclusive: 20.6 µM [cytotoxic, single point] | 
20 | Oc1ccc(C[C@H]2CNCCN2CCc2cc(C(F)(F)F)cc(C(F)(F)F)c2)cc1 | inconclusive: 23.1 µM [cytotoxic, single point] | 
22 | Cn1c2c(c(=O)n(C)c1=O)C(C(F)(F)F)(C(F)(F)F)N=C(CCC1CCCCC1)N2 | active: 23.1 µM | 

Remaining list, next part.

Row | SMILES | Potency | activity change, negative = cytotoxic
25 | CCN(CC)CCCNC(=O)CNC(=S)N(CCCN1CCOCC1)Cc1cccs1 | inconclusive: 9.2 µM [rising, partial curve, poor fit] | 
26 | Cc1c(NC(=O)c2ccc(COc3ccc4ccccc4c3)o2)c(=O)n(-c2ccccc2)n1C | active: 20.6 µM | 
27 | CC(Nc1nc(N2CCCCC2)nc2ccccc12)c1ccccc1 (stereo not given) | active: 11.2 µM | 
28 | Cc1cc(C)c[n+](-c2nc3ccccc3nc2C(=C=[N-])C#N)c1 | inconclusive: 0.0651 µM [cytotoxic, full curve] | 
29 | CN1C(=O)/C(=C\c2cc(N=Nc3ccccc3)ccc2O)SC1=S | inconclusive: 23.1 µM [cytotoxic, single point] | 
30 | O=C(NCCc1ccco1)c1nn(Cc2ccccc2)c(=O)c2ccccc12 | inconclusive: 29.1 µM [cytotoxic, single point] | 
31 | CCc1ccc(NC(=O)Cn2cnc3sc(C)c(S(=O)(=O)N4CCOCC4)c3c2=O)cc1 | inconclusive: 0.13 µM [cytotoxic, full curve] | 
32 | Cc1cc(S(=O)(=O)Nc2ccc(O)c(Sc3nc4ccccc4s3)c2)ccc1Cl | inconclusive: 29.1 µM [cytotoxic, single point] | 
33 | Cc1ccc(/C=N/NC(=O)c2cc(-c3ccncc3)nc3ccccc23)o1 | active: 5.8 µM | 
34 | CS(=O)(=O)c1ccc(Cl)c(NC(=O)COC(=O)CCc2c[nH]c3ccccc23)c1 | inactive | 
35 | CCc1nn(CC(=O)NCCOC)c(=O)c2cc3cc(F)ccc3n12 | inactive | 
36 | O=C(Nc1cccc(C(F)(F)F)c1)Nc1ccc2snnc2c1 | inconclusive: 29.1 µM [cytotoxic, single point] | 
37 | CC[C@]12C(=O)N(C)C[C@H]([C@@H]3C(=O)N(Cc4ccccc4)C(=O)[C@@H]31)N2C(=O)c1ccc(C(C)(C)C)cc1 | inactive | 
38 | Oc1ccccc1C1CC(c2cccs2)=NC(c2cccc(Br)c2)N1 (stereo not given) | inconclusive: 29.1 µM [cytotoxic, single point] | 
39 | CCN1CCN(S(=O)(=O)c2cc(OC)ccc2OC)CC1 |  | inconclusive: 2.13%
40 | Nc1c(C(=O)c2ccccc2)sc2nsc(SCCN3CCCC3)c12 | inconclusive: 20.6 µM [cytotoxic, single point] | 
41 | CCCNC(=O)C1(C)CCCN(CC(=O)c2ccc3c(c2)OCCO3)C1 (stereo not given) | inactive | 
42 | O=C(NCCCn1ccnc1)c1sc2cc([N+](=O)[O-])ccc2c1Cl | inconclusive: 20.6 µM [cytotoxic, single point] | 
43 | NC(=O)[C@H]1CC2(CC(c3cccc(NC(=O)c4ccccc4)c3)=NO2)CN1C(=O)[C@H]1CCC(=O)N1 (stereo not given in full) | inconclusive: 29.1 µM [cytotoxic, single point] | 
44 | O=[N+]([O-])CC(=Nc1ccc(Cl)cc1)N/N=C\c1oc(O)c2ccccc12 |  | inconclusive: -0.597%
45 | Cc1ccc(NC(=O)COc2ccc(Br)cn2)cc1 | inactive | 
46 | C/C(=N\NC(=O)c1ccc(NS(=O)(=O)c2cccs2)cc1)c1ccccn1 | inconclusive: 18.4 µM [cytotoxic, single point] | 
47 | COc1cc2c(cc1OC)CN(c1nc(CN3CCOCC3)nc3sc4c(c13)CCCC4)CC2 | inconclusive: 29.1 µM [cytotoxic, single point] | 
48 | Clc1ccc(Oc2cnc3ccccc3n2)cc1 | inconclusive: 0.206 µM [cytotoxic, full curve] | 

A draw from above in order of molecular weight, smallest number first:
Row | SMILES | Potency | activity change, negative = cytotoxic
45 | Cc1ccc(NC(=O)COc2ccc(Br)cn2)cc1 | inactive | 
33 | Cc1ccc(/C=N/NC(=O)c2cc(-c3ccncc3)nc3ccccc23)o1 | active: 5.8 µM | 
46 | C/C(=N\NC(=O)c1ccc(NS(=O)(=O)c2cccs2)cc1)c1ccccn1 | inconclusive: 18.4 µM [cytotoxic, single point] | 

Going on with the list.

Row | SMILES | Potency | activity change, negative = cytotoxic
49 | Cc1ccc2nc(-c3ccc(NC(=O)CCS(=O)(=O)c4ccccc4)cc3)sc2c1 | inactive | 
50 | CCCCn1c(-c2cccnc2)nc2cc3[nH]c(=O)c(C(C)C)nc3cc21 | inconclusive: 32.6 µM [rising, single point] | 
51 | CC(C)NC(=S)N1CCN(C(c2ccccc2)c2ccccc2)CC1 | inconclusive: 20.6 µM [cytotoxic, single point] | 
52 | CSc1ccc(CN(C)C(=O)CN2C(=O)NC3(CCCC3)C2=O)cc1 | inconclusive: 16.4 µM [rising, single point] | 
53 | O=C(NC1CCCCC1)N1CCC(c2nc(-c3ccc(S(=O)(=O)N4CCCC4)cc3)no2)CC1 | active: 8.2 µM | 
54 | COc1ccc(Br)cc1CN(C)C(=O)c1cc(Cl)c2c(c1)OCCO2 | inactive | 
55 | O=C(O)c1ccc2c3c(ncnc13)-c1ccccc1C2=O | inconclusive: 3.66 µM [cytotoxic, partial curve, poor fit] | 
56 | COc1ccc(-c2ccc3c(c2)O[C@H](CN(C)C(=O)Nc2ccccc2F)[C@@H](C)CN([C@H](C)CO)S3(=O)=O)cc1 | inconclusive: 14.6 µM [cytotoxic, partial curve] | 
57 | O=[N+]([O-])c1ccccc1S(=O)(=O)N1CCc2ccccc2C1 | inconclusive: 20.6 µM [rising, single point] | 
58 | C[C@H](NC(=O)c1nc[nH]c1C(=O)N1CCNCC1)C(=O)OCc1ccccc1 | inactive | 
59 | COc1ccccc1/C=C/c1onc(C)c1S(=O)(=O)N1CCC(C(=O)NC(C)C)CC1 |  | inconclusive: 2.58%
60 | CC1CCN(C(=O)Cn2c(SCC(=O)Nc3ccc(F)cc3)nc3ccccc32)CC1 | inactive | 
61 | CC1CCN(S(=O)(=O)c2ccc(C(=O)N3CCCC(C(F)(F)F)C3)cc2)CC1 (stereo not given) | inconclusive: 23.1 µM [cytotoxic, single point] | 
62 | CCN(CC)CCNC(=O)CCc1c(C)nc2c(c(C)nn2-c2ccc(C)c(C)c2)c1C | inconclusive: 29.1 µM [cytotoxic, single point] | 
63 | COC(=O)C1=C(Nc2ccc(C)cc2)C=C(C)C(C(=O)OC)C1c1cccc(OC)c1 (stereo not given) | inconclusive: 29.1 µM [cytotoxic, single point] | 
64 | CCCCn1c(-c2ccco2)n[nH]c1=S | inactive | 
65 | Cc1cc2ccccc2c[n+]1CC(=O)c1ccc(F)cc1 | inactive | 
66 | COc1ccc(NC(=O)C(CC(C)C)NC(=O)C2CCC(C)CC2)c(OC)c1 (stereo not given) | inactive | 
67 | COc1ccc(-c2csc3ncnc(N4CCN(S(=O)(=O)c5ccc(C)c(C)c5)CC4)c23)cc1 | inconclusive: 16.4 µM [cytotoxic, single point] | 
68 | O=C(NNC(=S)Nc1cccc2ccccc12)c1cccc(Br)c1 | inactive | 
69 | COc1ccc(N2CCN(C(=O)c3cc(S(=O)(=O)N4CCC(C)CC4)cn3C)CC2)cc1 | inconclusive: 18.4 µM [cytotoxic, single point] | 
70 | CC(C)N(C(=O)CSc1nc2ccccc2n1Cc1ccc(F)cc1)C(C)C | inconclusive: 16.4 µM [cytotoxic, single point] | 

From PubChem BioAssay AID1347075 (National Center for Advancing Translational Sciences (NCATS), 2019)
